Literature values, collected in patent US6894055B2, “Thieno-2′,3′ -5,6pyrimido[3,4-A]-1,2,4-triazole derivatives as modulators of phoshoinositide 3-kinase” (Iconix Pharmaceuticals Inc., priority 2001, dated 2005).
At least one structure is not confirmed: it was looked up by name or label, or the drawing left a doubt.

Experiments:
[1] = tested on: ovarian cancer cell lines
[2] = tested on: immortalized immature myelomonocytic cells from NF1 −/− mice; conditions: NF1 −/− myelomonocytic cells incubated with inhibitor

SMILES	PKB/AKT activity (glioblastoma cells)	levels of PI3K lipid products (glioblastoma cells)	effect on apoptosis [1]	effect on proliferation [1]	apoptosis [2]	IC50 (purified PI3K)
O=c1cc(N2CCOCC2)oc2c(-c3ccccc3)cccc12 [LY294002]	abolished the PKB/AKT activity	reduced the levels of the lipid products	increases apoptosis	decreases proliferation	undergo apoptosis	500 to 1500 nM
COC[C@H]1OC(=O)c2coc3c2[C@@]1(C)C1=C(C3=O)[C@@H]2CCC(=O)[C@@]2(C)C[C@H]1OC(C)=O [wortmannin]						2 to 5 nM
